In experiment [1] the target is HA-tagged SOX10 (SRY-related HMG box-containing factor 10) (UniProt P56693). Nature of the experiment: co-IP; 293T cells co-transfected for 24 h, lysed in RIPA buffer (50 mM Tris-HCl pH 8.0, 100 mM NaCl, 0.5% Nonidet P-40, 5 mM EDTA, 2 mM DTT); anti-HA or anti-Myc agarose 2 h to overnight at 4°C, four washes with RIPA buffer; Western blot. For orientation: A western blot detects proteins with antibodies after separation by electrophoresis.

Protein sequences, listed by entry. Tags and fused reporters are not part of them. Lines headed by an entry give the natural chain unless they say otherwise; changes in a name come on top.
UniProt P56693: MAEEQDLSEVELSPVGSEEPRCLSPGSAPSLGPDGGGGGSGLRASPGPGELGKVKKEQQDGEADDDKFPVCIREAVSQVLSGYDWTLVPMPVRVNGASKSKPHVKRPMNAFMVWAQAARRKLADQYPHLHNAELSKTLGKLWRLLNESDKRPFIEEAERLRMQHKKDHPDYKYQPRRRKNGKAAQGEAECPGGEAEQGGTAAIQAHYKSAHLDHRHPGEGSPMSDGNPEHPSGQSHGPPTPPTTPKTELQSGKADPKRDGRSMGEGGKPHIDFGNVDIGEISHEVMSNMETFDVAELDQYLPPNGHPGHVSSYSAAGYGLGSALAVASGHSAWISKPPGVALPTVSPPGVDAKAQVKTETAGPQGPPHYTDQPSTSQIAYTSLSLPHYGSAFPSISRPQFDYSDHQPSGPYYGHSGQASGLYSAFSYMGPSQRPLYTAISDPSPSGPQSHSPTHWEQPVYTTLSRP
UniProt Q969H0: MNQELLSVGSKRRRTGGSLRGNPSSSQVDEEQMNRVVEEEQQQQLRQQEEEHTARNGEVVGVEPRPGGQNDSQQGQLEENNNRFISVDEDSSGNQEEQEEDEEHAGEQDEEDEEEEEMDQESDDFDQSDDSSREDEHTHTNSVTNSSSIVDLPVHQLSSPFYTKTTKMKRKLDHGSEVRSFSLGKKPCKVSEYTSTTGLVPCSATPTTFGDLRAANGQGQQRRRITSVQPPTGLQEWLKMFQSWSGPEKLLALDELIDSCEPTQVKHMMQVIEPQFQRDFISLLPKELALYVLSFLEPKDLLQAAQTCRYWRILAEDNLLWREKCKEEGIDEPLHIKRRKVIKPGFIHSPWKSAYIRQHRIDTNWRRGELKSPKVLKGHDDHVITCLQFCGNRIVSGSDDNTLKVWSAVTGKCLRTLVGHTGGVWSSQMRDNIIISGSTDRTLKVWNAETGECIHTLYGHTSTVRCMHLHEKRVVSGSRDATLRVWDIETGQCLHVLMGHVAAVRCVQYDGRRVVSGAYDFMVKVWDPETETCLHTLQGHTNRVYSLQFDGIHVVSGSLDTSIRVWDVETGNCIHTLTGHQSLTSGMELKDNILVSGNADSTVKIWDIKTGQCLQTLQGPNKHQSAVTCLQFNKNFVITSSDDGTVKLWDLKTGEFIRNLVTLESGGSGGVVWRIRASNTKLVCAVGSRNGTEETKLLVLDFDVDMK
UniProt P49841: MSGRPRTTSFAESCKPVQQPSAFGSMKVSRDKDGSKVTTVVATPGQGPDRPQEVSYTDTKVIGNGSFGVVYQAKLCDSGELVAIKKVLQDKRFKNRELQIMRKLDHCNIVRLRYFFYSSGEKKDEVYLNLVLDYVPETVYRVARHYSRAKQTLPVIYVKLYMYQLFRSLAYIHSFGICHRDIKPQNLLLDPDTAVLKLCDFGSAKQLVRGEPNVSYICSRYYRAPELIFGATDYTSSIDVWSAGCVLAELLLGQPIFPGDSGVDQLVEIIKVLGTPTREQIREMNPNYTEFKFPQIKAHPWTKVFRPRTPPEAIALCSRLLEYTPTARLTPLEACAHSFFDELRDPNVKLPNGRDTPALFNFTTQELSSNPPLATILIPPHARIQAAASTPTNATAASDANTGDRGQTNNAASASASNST

Experiment [2] deals with SOX10-2A (SOX10 with mutated CPD motif) (UniProt P56693). The description is as above.

Results are given in words; binding and its absence hold for the method and conditions named. In cells and extracts the contact can be indirect. For part of these data: Binding can be weak; no strength is given.

This note sets out measurements from paper PMC4742183.

Consider “Fbxw7α with the F-box deleted (from UniProt Q969H0)”, for which, in experiment [1], the binding entry was “binds”.
Consider “Myc-GSK3β (glycogen synthase kinase 3β) (from UniProt P49841 1-420) (enzyme)”, for which the binding result in experiment [2] is on record as “no binding”.
Turning to “Myc-tagged Fbxw7α (from UniProt Q969H0 1-707)”, in experiment [2], the binding result is “no binding”.
